{"source": "patent US4307189A", "about": "“Method for the quantitative determination of terminal deoxynucleotidyl transferase in biological samples” (priority 1980, dated 1981)", "origin": "cited, not measured here", "tested_on": "replicative RNA polymerases", "conditions": "cited from earlier work", "note": "For at least one compound, name, drawing or mass did not settle the structure."}
{"smiles": "CNc1ncnc2c1ncn2[C@@H]1O[C@H](COP(=O)(O)OP(=O)(O)OP(=O)(O)O)[C@@H](O)[C@H]1O", "note": "[6-methylaminoadenosine triphosphate]", "values": [{"measurement": "substrate for the replicative RNA polymerases", "value": "is a substrate"}]}
